Data as given in PubChem BioAssay AID1259292 (Sanger Institute, 2017)

- Screen: 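Kinase partners giving synthetic lethality with three drugs in colorectal cancer cells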 (follow-up of hits)
- Cell system: human colorectal cancer RCM1 cells
- Reagent: single siRNA against human genes
- Treatment: anchor drugs BYL719 at 1 µM, cetuximab at 5 µg/ml or trametinib at 10 nM, or DMSO vehicle; exposure time not given
- Measurement: 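Replicate-averaged viability as a fraction of non-targeting pool 2 wells, under DMSO, BYL719 1 µM, cetuximab 5 µg/ml or trametinib 10 nM (time unstated), plus a synergy score for each drug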
- Scale: synergy score with trametinib and synergy score with cetuximab and synergy score with BYL719: higher = stronger combined killing beyond expected (synthetic lethal)
- Call rule: 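Synergy called if the score for BYL719, cetuximab or trametinib, any one of them, exceeds 0.10; genes below this for all three show no synergy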
- Calls: active = synergy with at least one anchor drug; inactive = no synergy with any anchor drug
The whole screen tested 160 reagents; below is an unselected part. 64 of them (40%) count as active. 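Four separate siRNAs per gene; a call can rest on any single drug, so look at each drug's score.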 The numbers tell different reagents against one gene apart. Further read-outs or replicates are left out here. Reagent sequences are not shown. Not given: the amount of reagent, the time to read-out.

Gene | reagent | synergy score with trametinib | synergy score with cetuximab | synergy score with BYL719 | call
PFKFB3 (GeneID 5209) | 1 | -0.00843 | 0.214 | 0.0175 | active
PFKFB3 (GeneID 5209) | 2 | 0.113 | 0.205 | -0.042 | active
PFKFB3 (GeneID 5209) | 3 | -0.00598 | 0.0628 | -0.0792 | inactive
PFKFB3 (GeneID 5209) | 4 | 0.0631 | -0.0118 | 0.00957 | inactive
CAMK2N1 (GeneID 55450) | 1 | -0.0748 | 0.0156 | -0.0972 | inactive
CAMK2N1 (GeneID 55450) | 2 | 0.0171 | 0.0528 | -0.125 | inactive
CAMK2N1 (GeneID 55450) | 3 | 0.204 | 0.152 | 0.0933 | active
CAMK2N1 (GeneID 55450) | 4 | -0.235 | 0.000697 | -0.181 | inactive
BRAF (GeneID 673) | 1 | 0.144 | -0.0126 | 0.0356 | active
BRAF (GeneID 673) | 2 | 0.248 | -0.108 | 0.175 | active
BRAF (GeneID 673) | 3 | -0.038 | -0.108 | -0.0943 | inactive
BRAF (GeneID 673) | 4 | 0.173 | 0.0142 | -0.0264 | active
GTF2H1 (GeneID 2965) | 1 | 0.0514 | -0.0522 | 0.0171 | inactive
GTF2H1 (GeneID 2965) | 2 | -0.257 | -0.0686 | -0.162 | inactive
GTF2H1 (GeneID 2965) | 3 | -0.114 | 0.0112 | -0.182 | inactive
GTF2H1 (GeneID 2965) | 4 | 0.05 | -0.0405 | -0.0609 | inactive
SF3B1 (GeneID 23451) | 1 | -0.108 | -0.0859 | -0.12 | inactive
SF3B1 (GeneID 23451) | 2 | 0.0609 | -0.0629 | 0.114 | active
SF3B1 (GeneID 23451) | 3 | 0.0365 | -0.0647 | -0.045 | inactive
SF3B1 (GeneID 23451) | 4 | -0.104 | -0.161 | -0.119 | inactive
CDKN2D (GeneID 1032) | 1 | 0.204 | 0.0412 | -0.158 | active
CDKN2D (GeneID 1032) | 2 | 0.154 | 0.0452 | 0.113 | active
CDKN2D (GeneID 1032) | 3 | 0.135 | 0.0206 | 0.0153 | active
CDKN2D (GeneID 1032) | 4 | 0.271 | 0.0294 | -0.0229 | active
BMPR2 (GeneID 659) | 1 | -0.109 | -0.0686 | -0.162 | inactive
BMPR2 (GeneID 659) | 2 | -0.0324 | -0.0878 | -0.212 | inactive
BMPR2 (GeneID 659) | 3 | -0.0861 | -0.0686 | -0.162 | inactive
BMPR2 (GeneID 659) | 4 | -0.296 | -0.0686 | -0.162 | inactive
HUNK (GeneID 30811) | 1 | -0.0488 | 0.0781 | 0.0235 | inactive
HUNK (GeneID 30811) | 2 | 0.0282 | 0.0326 | -0.055 | inactive
HUNK (GeneID 30811) | 3 | 0.0472 | -0.0143 | -0.148 | inactive
HUNK (GeneID 30811) | 4 | 0.123 | 0.26 | -0.0194 | active
CRIM1 (GeneID 51232) | 1 | -0.181 | 0.0927 | -0.0984 | inactive
CRIM1 (GeneID 51232) | 2 | 0.0525 | -0.0488 | -0.0224 | inactive
CRIM1 (GeneID 51232) | 3 | 0.136 | -0.142 | -0.145 | active
CRIM1 (GeneID 51232) | 4 | 0.192 | -0.0458 | 0.0126 | active

5 successive entries already listed:
Gene | reagent | synergy score with trametinib | synergy score with cetuximab | synergy score with BYL719 | call
PFKFB3 (GeneID 5209) | 3 | -0.00598 | 0.0628 | -0.0792 | inactive
PFKFB3 (GeneID 5209) | 4 | 0.0631 | -0.0118 | 0.00957 | inactive
CAMK2N1 (GeneID 55450) | 1 | -0.0748 | 0.0156 | -0.0972 | inactive
CAMK2N1 (GeneID 55450) | 2 | 0.0171 | 0.0528 | -0.125 | inactive
CAMK2N1 (GeneID 55450) | 3 | 0.204 | 0.152 | 0.0933 | active
